Earlier results in patent US11613768B2, “Microbial production of 2-phenylethanol from renewable substrates” (Arizona Board of Regents on behalf of Arizona State …, priority 2017, dated 2023).
The name of at least one read-out is uncertain.

Target: T1, ARO10 (Saccharomyces cerevisiae, UniProt Q06408)
T1 sequence (Q06408 1-635): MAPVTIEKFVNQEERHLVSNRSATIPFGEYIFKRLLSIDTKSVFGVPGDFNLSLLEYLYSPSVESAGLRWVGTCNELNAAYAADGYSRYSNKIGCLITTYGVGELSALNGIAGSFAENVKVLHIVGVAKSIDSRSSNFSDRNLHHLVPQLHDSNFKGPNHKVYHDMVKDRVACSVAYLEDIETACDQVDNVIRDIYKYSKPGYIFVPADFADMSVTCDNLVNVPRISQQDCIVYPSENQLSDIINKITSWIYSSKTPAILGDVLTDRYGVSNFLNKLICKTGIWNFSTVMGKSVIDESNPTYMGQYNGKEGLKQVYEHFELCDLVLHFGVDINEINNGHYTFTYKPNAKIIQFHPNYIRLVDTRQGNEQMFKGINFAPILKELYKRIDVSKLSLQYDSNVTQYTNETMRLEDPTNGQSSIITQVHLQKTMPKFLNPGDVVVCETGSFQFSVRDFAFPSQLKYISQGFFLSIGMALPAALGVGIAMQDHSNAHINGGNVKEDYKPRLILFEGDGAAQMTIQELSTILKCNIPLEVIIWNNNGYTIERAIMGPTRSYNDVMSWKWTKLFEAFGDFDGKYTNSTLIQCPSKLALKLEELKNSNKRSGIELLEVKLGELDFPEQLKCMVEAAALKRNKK
Conditions: in vitro assays; cited from earlier work

## CC(=O)C(=O)O [pyruvate]
  kcat/km: 35 M⁻¹ s⁻¹
